Results taken from US20230067910A1, “NOVEL COMPOUNDS FOR THE DIAGNOSIS, TREATMENT AND PREVENTION OF DISEASES ASSOCIATED WITH THE AGGREGATION OF ALPHA-SYNUCLEIN” (MODAG GMBH, priority 2019, published 2023).
Some results were stated once for a whole list of compounds, not compound by compound.

Experiment: In vivo biodistribution of [11C]-labeled compounds, small animal PET
Conditions: [11C]-labeled compound, intravenous tail vein, mice
Description: [^11C]-labeled compound 1 and compound 2, respectively, were injected intravenously in the tail vein of mice. Mice were then imaged in a small animal PET instrument. For both compounds, a good blood-brain-barrier penetration with SUV values >1.5 was observed.

Structure (SMILES) | SUV values (blood-brain-barrier penetration)
CN(C)c1ccc(-c2cc(-c3ccnc(Br)c3)[nH]n2)cc1 [Compound 1, 4-[3-(4-dimethylamino-phenyl)-1H-pyrazol-5-yl]-2-bromopyridine] | > 1.5
CNc1ccc(-c2cc(-c3ccnc(Br)c3)[nH]n2)cc1 [Compound 2, 4-[5-(2-bromopyridin-4-yl)-1H-pyrazol-3-yl]-N-methylaniline] | > 1.5
